Experimental data: the supplement of paper PMC6078165
The reference is the same well before dosing, and untreated signal decays as well.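 Fibroblast labels denote human fibroblasts, mainly primary ones from uterus (C12385, HUF), lung (H6013), bone (Hs27A), adrenal (HADF) and skin (WS1), plus mammary HMF and breast cancer-associated Hs343T. Cancer cells are basal-like or mesenchymal-like triple-negative breast cancer lines. A hit is a response shift exceeding 3x replicate standard deviation. The tissue of the other fibroblasts is not given here.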

Tested on: MDAMB436
Assay: relative JC-1 red fluorescence (viability) vs pre-drug, coculture with fibroblast (fraction); higher = more viable cancer cells
Protocol: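 JC-1 labelled TNBC cells cocultured 1:1 (1,500 cells each) with CellTrace Violet stained primary or stromal fibroblasts in 384-well plates in FluoroBrite medium, treated with one of 42 anticancer drugs at 0.1, 1, 10 or 100 uM. JC-1 red fluorescence (mitochondrial integrity in cancer cells only) was read by plate reader every 8 h for 72 h. Values are normalised to each well's pre-drug value. The stock of one drug was tenfold lower, so its dose labels may be too high.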

CO[C@H]1C[C@@H]2CC[C@@H](C)[C@@](O)(O2)C(=O)C(=O)N2CCCC[C@H]2C(=O)O[C@H]([C@H](C)C[C@@H]2CC[C@@H](O)[C@H](OC)C2)CC(=O)[C@H](C)/C=C(\C)[C@@H](O)[C@@H](OC)C(=O)[C@H](C)C[C@H](C)/C=C/C=C/C=C/1C [Rapamycin]
relative JC-1 red fluorescence
Conditions	8 h	16 h	24 h	32 h	40 h	48 h	56 h	64 h	72 h
0.1 µM, coculture fibroblast: C12385	0.77382	0.706	0.657	0.572	0.521	0.487	0.462	0.443	0.436
0.1 µM, coculture fibroblast: H6013	0.784	0.738	0.724	0.716	0.704	0.736	0.705	0.696	0.668
0.1 µM, coculture fibroblast: H6019	0.715	0.65	0.626	0.548	0.512	0.494	0.475	0.46	0.445
0.1 µM, coculture fibroblast: H6076	0.727	0.672	0.657	0.62	0.616	0.592	0.616	0.612	0.609
0.1 µM, coculture fibroblast: H6231	0.7772	0.686	0.697	0.613	0.604	0.573	0.561	0.543	0.527
0.1 µM, coculture fibroblast: HADF	0.831	0.78	0.791	0.776	0.771	0.805	0.749	0.749	0.72
0.1 µM, coculture fibroblast: HCFa	0.754	0.707	0.672	0.64	0.62	0.6378	0.5681	0.559	0.505
0.1 µM, coculture fibroblast: HCPF	0.788	0.723	0.694	0.632	0.606	0.57	0.553	0.534	0.513
0.1 µM, coculture fibroblast: HHSteC	0.813	0.779	0.748	0.715	0.706	0.723	0.664	0.652	0.604
0.1 µM, coculture fibroblast: HMF	0.726	0.672	0.656	0.614	0.597	0.561	0.566	0.551	0.544
0.1 µM, coculture fibroblast: HPFa	0.901	0.807	0.782	0.743	0.736	0.753	0.691	0.676	0.624
0.1 µM, coculture fibroblast: HUF	0.839	0.731	0.701	0.627	0.566	0.537	0.517	0.504	0.5
0.1 µM, coculture fibroblast: Hs5	0.7573	0.696	0.678	0.617	0.605	0.563	0.578	0.544	0.532
0.1 µM, coculture fibroblast: Hs27A	0.796	0.724	0.708	0.69	0.665	0.725	0.645	0.63	0.574
0.1 µM, coculture fibroblast: Hs343T	0.737	0.665	0.6318	0.5885	0.573	0.5358	0.539	0.528	0.5197
0.1 µM, coculture fibroblast: WS1	0.752	0.693	0.656	0.56	0.523	0.49	0.469	0.446	0.436
1 µM, coculture fibroblast: C12385	0.827	0.816	0.814	0.749	0.706	0.693	0.681	0.668	0.672
1 µM, coculture fibroblast: H6013	0.846	0.819	0.816	0.806	0.801	0.8188	0.783	0.7721	0.7359
1 µM, coculture fibroblast: H6019	0.787	0.7807	0.787	0.732	0.711	0.704	0.667	0.646	0.618
1 µM, coculture fibroblast: H6076	0.828	0.791	0.805	0.77	0.757	0.745	0.747	0.74	0.734
1 µM, coculture fibroblast: H6231	0.764	0.7339	0.7811	0.7066	0.691	0.664	0.664	0.636	0.626
1 µM, coculture fibroblast: HADF	0.849	0.843	0.842	0.828	0.811	0.835	0.766	0.761	0.719
1 µM, coculture fibroblast: HCFa	0.8177	0.8005	0.785	0.766	0.747	0.758	0.692	0.685	0.628
1 µM, coculture fibroblast: HCPF	0.856	0.848	0.856	0.7933	0.762	0.715	0.69	0.665	0.644
1 µM, coculture fibroblast: HHSteC	0.82188	0.8457	0.845	0.825	0.818	0.85	0.782	0.772	0.72
1 µM, coculture fibroblast: HMF	0.7859	0.752	0.758	0.717	0.706	0.675	0.677	0.657	0.647
1 µM, coculture fibroblast: HPFa	0.898	0.908	0.9	0.863	0.859	0.883	0.81	0.787	0.741
1 µM, coculture fibroblast: HUF	0.846	0.79	0.778	0.703	0.64	0.613	0.591	0.5772	0.5706
1 µM, coculture fibroblast: Hs5	0.814	0.798	0.7951	0.735	0.7228	0.675	0.679	0.653	0.644
1 µM, coculture fibroblast: Hs27A	0.81	0.812	0.822	0.824	0.816	0.897	0.813	0.811	0.737
1 µM, coculture fibroblast: Hs343T	0.812	0.773	0.741	0.7	0.681	0.651	0.637	0.622	0.618
1 µM, coculture fibroblast: WS1	0.798	0.765	0.751	0.678	0.636	0.624	0.599	0.583	0.573
